Measured values published in PubChem BioAssay AID504467 (National Center for Advancing Translational Sciences (NCATS), 2011).
About 7,700 (2.3%) of roughly 330,000 compounds were called active. Inconclusive results, whose numbers are uncertain, are shown with a selection of clear calls. The call rests on the fitted dose curve; in most records, active means well fitted inhibition curve with a large enough effect; inconclusive means small, poorly fitted or top-dose-only effect, or effect the other way; inactive means flat fitted curve, though single readings scatter. Where the call is inconclusive, the potency comes from a doubtful curve fit.

assay: qHTS screen for small molecules that inhibit ELG1-dependent DNA repair in human embryonic kidney (HEK293T) cells expressing luciferase-tagged ELG1; conditions: HEK293T ELG1-luciferase reporter, luminescence, 16 h, DNA damage induced by 5-fluorouridine; activity change, negative = inhibition: at 46.1 µM (top of the series); further: nearly all actives have a fitted effect of over 55% in size
Outline: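 Reporter activity after DNA damage by 5-fluorouridine is monitored. Compound-treated cells incubate 16 hr at 37 °C, then ONE-Glo is added for 30 min before luminescence reading.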
On the % scale 0 is the no-effect control and ±100 the full control effect; potency means the concentration at half of the fitted maximal effect.

Q: Which “activity change, negative = inhibition” value does the source give for `CC1CCN(CCC(=O)Nc2ccc(F)c(F)c2)CC1` here?
A: inactive: -1.55%

Q: For `COc1cccc(C(=O)c2cc3cc(Cl)ccc3[nH]2)c1`, which Potency is on record?
A: inconclusive: 18.3 µM [activator, partial curve]

Q: For `O=C(Nc1cccc(-c2csc(Nc3ccccc3)n2)c1)c1ccccc1`, which Potency is on record?
A: inconclusive: 1.83 µM [activator, partial curve]

Q: With `COc1ccc(/C=N/NC(=O)c2ccc(N)cc2)cc1Cn1cc([N+](=O)[O-])cn1` as the compound, how does the Potency read?
A: inconclusive: 6.51 µM [activator, single point]

Q: With `CCCc1nc(SC2CCCC2)c2c(=O)n(C)c(=O)n(C)c2n1` as the compound, how does the “activity change, negative = inhibition” value read?
A: inactive: -12.7%

Q: Which Potency does the source give for `COc1ccc(-c2ccc3ccccc3n2)cc1OC` here?
A: inconclusive: 8.2 µM [activator, partial curve]

Q: For `CCC1CCCCN1C(=O)CSc1nnc(-c2cccc(Cl)c2)o1` (stereo unspecified), which Potency is on record?
A: inconclusive: 9.2 µM [activator, partial curve, poor fit]

Q: For `COc1ccc(-c2cnn3c4c(c(C)nc23)CCN4C(C)C)cc1OC`, which Potency is on record?
A: inconclusive: 0.13 µM [activator, partial curve, poor fit]

Q: With `COc1ccc(OC2C(=O)N(Cc3ccc4c(c3)OCO4)C2c2sccc2C)cc1` (stereo unspecified) as the compound, how does the Potency read?
A: inconclusive: 29.1 µM [inhibitor, single point]

Q: For `COc1ccc(-n2nc(C(=O)NCC(=O)NC(C)C)c3ccccc3c2=O)c(OC)c1`, which “activity change, negative = inhibition” value is on record?
A: inactive: 3.84%

Q: For `CCCCc1nn(-c2cc(Cl)ccc2OC)c2c1C(=O)CC(C)(C)C2`, which “activity change, negative = inhibition” value is on record?
A: inactive: -14%

Q: For `O=C(c1cccc(N2CCCC2=O)c1)N1CCN(c2cccc(Cl)c2)CC1`, which Potency is on record?
A: inconclusive: 2.31 µM [inhibitor, full curve, poor fit]

Q: For `Cc1nn(-c2ccccc2)nc1CNC(=O)C1CCC1`, which Potency is on record?
A: inconclusive: 0.651 µM [inhibitor, full curve]

Q: For `CCN1C(=O)[C@H]2[C@@H](c3ccc(-c4ccccc4)c(OC)c3)N[C@@](Cc3ccccc3)(C(=O)OC)[C@H]2C1=O`, which “activity change, negative = inhibition” value is on record?
A: inactive: 19.1%

Q: Which “activity change, negative = inhibition” value does the source give for `CCN(CC(=O)Nc1ccccc1C(F)(F)F)C(=O)CCS(=O)(=O)c1ccc(Cl)cc1` here?
A: inactive: -25.8%

Q: Which “activity change, negative = inhibition” value does the source give for `O=C(CCS(=O)(=O)Cc1ccccc1)Nc1ccc2c(c1)OCCO2` here?
A: inactive: 21.4%

Q: For `CC1(C)CC(=O)c2c(O)cc(OCC(=O)N3CCN(c4ccc(F)cc4)CC3)cc2O1`, which Potency is on record?
A: inconclusive: 29.1 µM [inhibitor, single point]

Q: With `COc1ccc(/C=N/N=C(\N)c2nonc2N)cc1` as the compound, how does the Potency read?
A: inconclusive: 2.31 µM [activator, full curve]

Q: For `COc1ccc(CCNC(=O)c2ccc3c(=O)n(Cc4ccco4)c(=S)[nH]c3c2)cc1OC`, which Potency is on record?
A: inconclusive: 1.16 µM [activator, single point]

Q: With `Cc1ccc(NC(=O)c2ccccc2NS(=O)(=O)c2ccc(Cl)s2)cc1S(=O)(=O)N1CCOCC1` as the compound, how does the Potency read?
A: active: 23.1 µM

Q: Which “activity change, negative = inhibition” value does the source give for `CCCCCc1c(O)c2ccccc2[nH]c1=O` here?
A: inactive: 6.4%

Q: Which Potency does the source give for `CC(OC(=O)c1c2c(nc3ccccc13)/C(=C\c1ccc3c(c1)OCO3)CCC2)C(=O)Nc1ccc(S(N)(=O)=O)cc1` (stereo unspecified) here?
A: inconclusive: 29.1 µM [inhibitor, single point]

Q: Which Potency does the source give for `O=C(/C=C/c1ccc(OC2CSC2)cc1)c1ccc(Cl)cc1` here?
A: inconclusive: 29.1 µM [activator, single point]

Q: For `COCCNC(=O)CN(c1cc(C(F)(F)F)ccc1Cl)S(C)(=O)=O`, which “activity change, negative = inhibition” value is on record?
A: inactive: 4.54%

Q: Which “activity change, negative = inhibition” value does the source give for `CCCNC(=O)c1onc(CS(=O)(=O)c2cccc(OC)c2)c1C(=O)NCCC` here?
A: inactive: 28.5%

Q: For `O=C1CNC(=S)N1CCc1ccc(Cl)cc1`, which “activity change, negative = inhibition” value is on record?
A: inactive: 2.42%

Q: With `CCCc1nc(SCC(=O)NCC2CCCO2)c2c(=O)n(C)c(=O)n(C)c2n1` (stereo unspecified) as the compound, how does the “activity change, negative = inhibition” value read?
A: inactive: 0.257%

Q: For `CCN(CC)c1nc(C(N)=O)cc(-c2ccccc2)n1`, which Potency is on record?
A: inconclusive: 8.2 µM [inhibitor, partial curve, poor fit]

Q: For `CC1CC(=O)N(CC(=O)N2CCCC2)c2ccccc2S1` (stereo unspecified), which “activity change, negative = inhibition” value is on record?
A: inactive: -0.482%

Q: With `Clc1ccc(CN2CCCCCCC2)cc1Cl` as the compound, how does the “activity change, negative = inhibition” value read?
A: inactive: 8.28%

Q: Which Potency does the source give for `O=C(Nc1ccc(S(=O)(=O)N2CCOCC2)cc1)c1ccc(F)cc1` here?
A: inconclusive: 29.1 µM [inhibitor, single point]

Q: Which Potency does the source give for `CCCCOc1ccc(/C=N/Nc2cc(N3CCOCC3)nc(C)n2)cc1` here?
A: inconclusive: 20.6 µM [inhibitor, single point]

Q: For `O=c1[nH]c2ccc(NCc3ccc(OCc4ccccc4Cl)cc3)cc2[nH]1`, which Potency is on record?
A: inconclusive: 18.3 µM [activator, single point]

Q: With `CC(=O)c1cn(CCOc2cc(C)ccc2C)c2ccccc12` as the compound, how does the “activity change, negative = inhibition” value read?
A: inactive: 10.9%

Q: For `O=C(Nc1ccc(Cl)cc1)Nc1nc(-c2ccccc2O)cs1`, which Potency is on record?
A: inconclusive: 20.6 µM [inhibitor, partial curve, poor fit]

Q: With `COC(=O)c1c(NC(=O)CN(c2ccccc2)S(C)(=O)=O)sc2c1CCCC2` as the compound, how does the Potency read?
A: inconclusive: 29.1 µM [inhibitor, single point]

Q: Which Potency does the source give for `O=C(CN1C(=O)c2cccc3cccc1c23)N1CCc2ccccc2C1` here?
A: inconclusive: 16.4 µM [inhibitor, partial curve, poor fit]

Q: For `CCOC(=O)NC(=O)CSc1ccc(S(=O)(=O)N(C)C2CCCCC2)cn1`, which “activity change, negative = inhibition” value is on record?
A: inactive: -3.66%

Q: Which Potency does the source give for `Cc1cccc2c1-c1sc(C(=O)Nc3cccc([N+](=O)[O-])c3C)cc1CO2` here?
A: inconclusive: 29.1 µM [inhibitor, partial curve, poor fit]

Q: For `Cc1ccc2c(c1)c(=O)c1c3n2CCN(C(=O)CCl)C3CC1` (stereo unspecified), which Potency is on record?
A: inconclusive: 4.11 µM [inhibitor, partial curve, poor fit]

Q: Which “activity change, negative = inhibition” value does the source give for `Cc1ccc(-n2nc3c(=O)n(CCCC(=O)NCc4ccccc4C)nc(C)c3c2C)cc1` here?
A: inactive: -29.9%

Q: With `O=C(O)C1CC=C(Cl)CC1C(=O)NC1CCCCC1` (stereo unspecified) as the compound, how does the Potency read?
A: inconclusive: 20.6 µM [activator, partial curve, poor fit]

Q: Which “activity change, negative = inhibition” value does the source give for `Cc1cccc(N2CCN(Cc3ccc([N+](=O)[O-])o3)CC2)c1C` here?
A: inactive: -2.14%

Q: For `CCOC(=O)c1c(NC(=O)COC(=O)c2cccnc2OCC)sc(C(=O)N(CC)CC)c1C`, which Potency is on record?
A: active: 7.3 µM

Q: For `O=C(Nc1ccc(Cl)cc1)C1=Cc2ccccc2OC1`, which Potency is on record?
A: inconclusive: 1.64 µM [activator, partial curve]

Q: For `O=C(NCCCN=C1NS(=O)(=O)c2ccccc21)c1ccc(S(=O)(=O)N2CCCCC2)cc1`, which “activity change, negative = inhibition” value is on record?
A: inactive: 0%
